One experiment addresses human ERRα-1 (Homo sapiens, UniProt P11474). As to the kind of experiment: Transient transfection luciferase assay, full length human ERRα with SF1-SV40-Luc reporter in HeLa cells. Particulars: for Antagonism of constitutive activity of ERRα (in words): SF1 binding site reporter, FIG. 1; for pIC50: read-out: IC50, SF1-SV40-Luc, pSG5-ERRα, 24 h, mean ± SD.
In experiment [1] the target is GAL4-human ERRα LBD fusion (Homo sapiens, UniProt P11474). As to the kind of experiment: Transient transfection luciferase assay, GAL4-human ERRα LBD fusion with Gal4-TK-Luc reporter in HeLa cells. The note with it: read-out: IC50, Gal4-TK-Luc, pM-ERRα LBD, 24 h, mean ± SD.
In a further experiment the target is ERRβ (Homo sapiens, UniProt O95718). As to the kind of experiment: Transient transfection luciferase assay with pSG5-ERRb and SF1-SV40 reporter in HeLa cells. Particulars: for pIC50: read-out: IC50, ERRβ, HeLa cells, 24 h, average of at least two experiments; for Antagonistic properties on ERRb (in words): transient transfection.
Another experiment concerns the target ERRγ (Homo sapiens, UniProt P62508). Kind of experiment: Transient transfection luciferase assay with pSG5-ERRg and SF1-SV40 reporter in HeLa cells. Particulars: for pIC50: read-out: IC50, ERRγ, HeLa cells, 24 h, average of at least two experiments; for Antagonistic properties on ERRg (in words): transient transfection.
The target in another experiment is ERα (Homo sapiens, UniProt P03372). As to the kind of experiment: Transient transfection luciferase assay with pSG5-ERa and ERE-SV40 reporter in HeLa cells, with 100 pM estradiol. Particulars: for pIC50: read-out: IC50, ERα, HeLa cells, in the presence of 100 pM of estradiol, 24 h; for Antagonistic properties on ERa (in words): transient transfection.
The target in a further experiment is ERβ (Homo sapiens, UniProt Q92731). Kind of experiment: Transient transfection luciferase assay with pCI-ERb and ERE-SV40 reporter in HeLa cells, with 100 pM estradiol. Particulars: for pIC50: read-out: IC50, ERβ, HeLa cells, in the presence of 100 pM of estradiol, 24 h; for Antagonistic properties on ERb (in words): transient transfection.

By UniProt entry, the sequences of proteins in these tests, tags left out. Residues count along the entry.
UniProt P11474, whole entry: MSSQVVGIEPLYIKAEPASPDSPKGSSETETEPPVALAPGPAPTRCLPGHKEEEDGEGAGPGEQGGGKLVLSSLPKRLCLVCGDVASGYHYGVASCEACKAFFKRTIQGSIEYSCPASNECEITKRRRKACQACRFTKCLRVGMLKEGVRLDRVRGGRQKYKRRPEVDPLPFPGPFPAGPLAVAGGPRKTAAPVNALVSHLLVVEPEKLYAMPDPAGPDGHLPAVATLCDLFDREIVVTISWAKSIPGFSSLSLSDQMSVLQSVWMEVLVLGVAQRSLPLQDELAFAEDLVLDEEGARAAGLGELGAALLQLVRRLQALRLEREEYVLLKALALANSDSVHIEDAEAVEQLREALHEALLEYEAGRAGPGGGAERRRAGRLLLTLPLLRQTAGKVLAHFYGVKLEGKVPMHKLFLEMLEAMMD
UniProt P11474, 193-421 limits assumed: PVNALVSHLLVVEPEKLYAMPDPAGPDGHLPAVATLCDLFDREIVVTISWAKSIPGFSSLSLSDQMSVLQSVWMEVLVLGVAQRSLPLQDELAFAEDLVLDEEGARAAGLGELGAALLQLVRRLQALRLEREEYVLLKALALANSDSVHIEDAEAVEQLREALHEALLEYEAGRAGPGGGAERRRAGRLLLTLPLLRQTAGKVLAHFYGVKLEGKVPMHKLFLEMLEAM
UniProt O95718, whole entry: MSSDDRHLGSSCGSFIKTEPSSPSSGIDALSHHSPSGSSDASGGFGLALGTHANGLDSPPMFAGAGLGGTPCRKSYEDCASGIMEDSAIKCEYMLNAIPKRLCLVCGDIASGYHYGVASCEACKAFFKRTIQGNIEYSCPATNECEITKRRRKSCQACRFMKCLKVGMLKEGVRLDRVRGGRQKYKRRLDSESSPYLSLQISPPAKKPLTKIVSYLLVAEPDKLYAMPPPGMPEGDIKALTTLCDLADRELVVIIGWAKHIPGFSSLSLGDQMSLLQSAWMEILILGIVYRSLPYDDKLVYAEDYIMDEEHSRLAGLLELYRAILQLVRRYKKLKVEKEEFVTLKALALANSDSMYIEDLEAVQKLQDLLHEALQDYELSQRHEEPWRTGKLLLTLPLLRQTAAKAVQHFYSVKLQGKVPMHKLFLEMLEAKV
UniProt P62508, whole entry: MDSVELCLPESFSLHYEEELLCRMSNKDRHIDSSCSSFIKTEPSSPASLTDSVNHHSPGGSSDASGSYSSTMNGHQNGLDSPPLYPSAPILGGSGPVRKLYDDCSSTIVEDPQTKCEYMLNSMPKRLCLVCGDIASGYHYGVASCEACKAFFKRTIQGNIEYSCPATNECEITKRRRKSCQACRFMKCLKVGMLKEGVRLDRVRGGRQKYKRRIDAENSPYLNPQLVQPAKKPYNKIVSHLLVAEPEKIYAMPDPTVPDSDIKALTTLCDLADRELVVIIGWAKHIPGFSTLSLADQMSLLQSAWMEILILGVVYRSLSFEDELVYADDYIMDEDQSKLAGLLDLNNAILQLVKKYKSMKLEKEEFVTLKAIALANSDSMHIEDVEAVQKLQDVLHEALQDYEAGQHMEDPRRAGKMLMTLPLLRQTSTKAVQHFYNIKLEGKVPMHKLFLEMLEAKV
UniProt P03372, whole entry: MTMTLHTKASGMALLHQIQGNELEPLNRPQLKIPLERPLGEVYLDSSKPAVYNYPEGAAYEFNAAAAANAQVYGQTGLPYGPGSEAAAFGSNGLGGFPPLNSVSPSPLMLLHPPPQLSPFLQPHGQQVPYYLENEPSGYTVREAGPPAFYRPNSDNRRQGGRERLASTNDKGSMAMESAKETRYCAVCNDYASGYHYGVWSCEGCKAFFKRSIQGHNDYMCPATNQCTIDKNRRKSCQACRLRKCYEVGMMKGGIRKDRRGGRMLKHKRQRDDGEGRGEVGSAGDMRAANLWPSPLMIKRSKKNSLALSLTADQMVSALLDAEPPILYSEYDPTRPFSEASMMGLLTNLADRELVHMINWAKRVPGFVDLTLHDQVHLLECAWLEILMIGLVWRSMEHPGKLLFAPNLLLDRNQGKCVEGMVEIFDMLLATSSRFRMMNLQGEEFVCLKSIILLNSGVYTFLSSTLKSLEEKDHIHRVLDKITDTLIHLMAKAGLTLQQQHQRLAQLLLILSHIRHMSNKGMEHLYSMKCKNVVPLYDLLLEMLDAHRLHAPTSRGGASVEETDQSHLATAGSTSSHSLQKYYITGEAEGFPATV
UniProt Q92731, whole entry: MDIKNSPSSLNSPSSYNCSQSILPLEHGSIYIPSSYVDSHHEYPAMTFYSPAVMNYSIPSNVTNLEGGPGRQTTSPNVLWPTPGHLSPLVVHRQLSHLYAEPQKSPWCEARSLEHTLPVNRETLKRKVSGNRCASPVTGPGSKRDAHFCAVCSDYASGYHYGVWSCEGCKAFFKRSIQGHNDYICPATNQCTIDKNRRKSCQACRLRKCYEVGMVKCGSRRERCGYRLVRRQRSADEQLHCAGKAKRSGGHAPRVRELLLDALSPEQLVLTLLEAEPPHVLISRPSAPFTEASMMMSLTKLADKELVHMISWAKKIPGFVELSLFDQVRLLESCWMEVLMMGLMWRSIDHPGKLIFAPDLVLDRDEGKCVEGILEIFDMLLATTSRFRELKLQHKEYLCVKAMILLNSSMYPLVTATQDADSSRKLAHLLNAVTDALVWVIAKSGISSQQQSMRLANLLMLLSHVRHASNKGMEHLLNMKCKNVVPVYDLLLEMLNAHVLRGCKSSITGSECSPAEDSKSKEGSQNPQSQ

The structures appear in SMILES notation. pIC50: −log10 of the molar value. The match of structure and compound is tentative.

As to `COc1cc(O)c(C(=O)/C=C/c2ccccc2OC)c(OC)c1`, at human ERRα-1, the “Antagonism of constitutive activity of ERRα (in words)” value (from here on “Antagonism”) was “antagonists of ERRα” and the negative-log IC50 (pIC50) is 5.19. In addition, the IC50 in experiment [1] was found to be 1.9e+06 pM. Also, on ERRβ, the pIC50 is 5.46 and the “Antagonistic properties on ERRb (in words)” value is “showed antagonistic properties”. In addition, on ERRγ, the negative-log IC50 (pIC50) is 5.17 and the “Antagonistic properties on ERRg (in words)” value is “showed antagonistic properties”. Moreover, on ERα, the pIC50 is 5.57 and the “Antagonistic properties on ERa (in words)” value is “showed antagonistic properties”. Besides, at ERβ, the negative logarithm of the IC50 (pIC50) is 5.22 and the “Antagonistic properties on ERb (in words)” value is reported as “showed antagonistic properties”.

On to `COc1ccc(C(=O)/C=C/c2ccc(OC)cc2OC)c(O)c1`, for which, at human ERRα-1, the “Antagonism” value is given as “antagonists of ERRα” and the pIC50 was 4.73. The IC50 in experiment [1] came out at 3.6e+06 pM. Moreover, on ERRβ, the pIC50 is 5.10 and the “Antagonistic properties on ERRb (in words)” value is “showed antagonistic properties”. In addition, at ERRγ, the pIC50 was 5.00 and the “Antagonistic properties on ERRg (in words)” value is given as “showed antagonistic properties”. Besides, on ERα, the negative-log IC50 (pIC50) is 4.90 and the “Antagonistic properties on ERa (in words)” value was “showed antagonistic properties”. On ERβ, the pIC50 was 4.70 and the “Antagonistic properties on ERb (in words)” value is on record as “showed antagonistic properties”.

On to `COc1cc(O)c(C(=O)/C=C/c2ccc(OCc3ccccc3)c(OC)c2)c(OC)c1`, for which, on human ERRα-1, the “Antagonism” value is given as “antagonists of ERRα” and the pIC50 is 5.06. The IC50 in experiment [1] was 2.4e+06 pM. For the same compound, on ERRβ, the pIC50 was 5.05 and the “Antagonistic properties on ERRb (in words)” value is recorded as “showed antagonistic properties”. On ERRγ, the negative logarithm of the IC50 (pIC50) was 5.02 and the “Antagonistic properties on ERRg (in words)” value is “showed antagonistic properties”. In addition, on ERα, the negative-log IC50 (pIC50) was 5.02 and the “Antagonistic properties on ERa (in words)” value is given as “showed antagonistic properties”. Moreover, on ERβ, the negative logarithm of the IC50 (pIC50) is 5.15 and the “Antagonistic properties on ERb (in words)” value is reported as “showed antagonistic properties”.

In the case of `COc1ccc(C(=O)/C=C/c2cccc(OC)c2OC)c(O)c1`, on human ERRα-1, the “Antagonism” value was “antagonists of ERRα” and the negative logarithm of the IC50 (pIC50) was 5.11. Also, the 50% inhibitory concentration (IC50) in experiment [1] worked out at 2e+06 pM. Moreover, on ERRβ, the negative logarithm of the IC50 (pIC50) was 5.12 and the “Antagonistic properties on ERRb (in words)” value is reported as “showed antagonistic properties”. Also, at ERRγ, the pIC50 is 5.10 and the “Antagonistic properties on ERRg (in words)” value is given as “showed antagonistic properties”. On ERα, the pIC50 is 5.24 and the “Antagonistic properties on ERa (in words)” value is reported as “showed antagonistic properties”. Also, at ERβ, the negative logarithm of the IC50 (pIC50) is 4.80 and the “Antagonistic properties on ERb (in words)” value is “showed antagonistic properties”.

A word on the pIC50: it is −log10 of the IC50, conventionally taken in molar units. The IC50 is the midpoint of a concentration-inhibition curve.

The values above are taken from US9763961B2, “Compositions that modulate the activity of estrogen receptors and estrogen-related receptors and methods for use” (CITY OF HOPE, priority 2005, dated 2017).
